Some results were stated once for a whole list of compounds, not compound by compound.
Test system: Raji cells (lymphoma)
Experiment: MTT cell growth inhibition, Raji
Type: cell-based, human
Settings: 72 h, listed as Orsaponin
Description: FIG. 2. Effect of Orsaponin (OSW-1) on cell growth in two human cancer cell lines including a leukemia and a lymphoma cell line. HL-60 (leukemia) and Raji cells (lymphoma) in exponentially growing phase were treated with the indicated concentrations of OSW-1 for 72 hours. Cell growth inhibition was measured by MTT assay.
Cells and Cell Lines. Various cancer cell lines were used including the human leukemia cell lines HL-60 and ML-1 cells; human lymphoma cell line Raji; human pancreatic cancer cells AsPC-1; and human ovarian cancer cells SKOV3; human colon cancer cells HCT116; as well as isolated CLL cells from patients; and lymphocytes from normal donors. Cells were grown and maintained as per protocols known in the art using appropriate cell culture media and supplements.
1. MTT Assays. For these assays either cancer cell lines were used. […] After the indicated number of days (usually 3 days or 72 hours) of exposure to OSW-1, cell survival was assessed by the addition of the MTT dye to the wells. […] Survival of cells under orsaponin treatment was evaluated as a percentage of control cell growth. […]
Anticancer activities of Orsaponin and 17-deoxyorsaponin were examined in human leukemia cells (ML-1) and human lymphoma cells (Raji). Cells were incubated with various concentrations of Orsaponin and 17-deoxyorsaponin for 72 h, and cell growth inhibition was measured by MTT assay.

## COc1ccc(C(=O)OC2C(OC3C(O)COC(O[C@H]4C[C@H]5[C@@H]6CC=C7C[C@@H](O)CC[C@]7(C)[C@H]6CC[C@]5(C)[C@@]4(O)[C@H](C)C(=O)CCC(C)C)C3OC(C)=O)OCC(O)C2O)cc1 (stereo partly drawn) [OSW-1, 3β, 16β, 17 α-trihydroxycholost-5-en-22-one 16-O-(2-O-4-methoxybenzoyl-β-D-xylopyranosyl)-(1->3)-(2-O-acetyl-α-L-arabinopyranoside)]
  IC50: < 100 pM

From US20050004044A1, “Use of orsaponin [3beta, 16beta, 17 alpha-trihydroxycholost-5-en-22-one 16-0-(2-0-4-methoxybenzoyl-beta-D-xylopyranosyl)-(1->3)-(2-0-acetyl-alpha-L-arabinopyranoside)] or OSW-1 and its derivatives for cancer therapeutics” (priority 2003, published 2005)
